Data: PubChem BioAssay AID1347426 (Functional Genomics Laboratory (NCATS/FGL), 2020)
Out of some 31,000 sequences screened, about 1,400 (4.5%) were called active.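 The calls were made as follows: active = median seed-adjusted z-score above 1 or below -1; inactive = the rest.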 This is one part of the list.

Assay: Novel Modifiers of Survival Motor Neuron (SMN) Protein: Gene Identification via Genome-wide siRNA Screen;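 also: luminescence tracks full-length SMN protein made from the SMN2 reporter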
Conditions: HEK293T SMN2-luciferase reporter, siRNA knockdown, 72 h; actives lie on both sides
Procedure, shortened: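 Genome-wide siRNA screen (10418 genes, 3 siRNAs each, 1 pmol per well) by reverse transfection in HEK293T cells stably carrying an SMN2-luciferase reporter; luminescence after 72 hours, normalized to negative-control siRNA, log10-transformed, MAD-scored.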

Row | Sequence | median seed-adjusted z-score
1 | GCAGAAAGGUGGUUAUAAUTT against ZNF718 | inactive: 0.0564
2 | GGCUAUGGGUGUGGAAGAATT against SLC22A8 | inactive: 0.175
3 | CCAGCAAUGCAUCCGAGUATT against TCEB3 | inactive: 0.232
4 | GAACCUCCGUGAUCGAUUUTT against PIP4K2C | inactive: 0.27
5 | CAUGAUCUCCGGCUACCUATT against SLCO2B1 | inactive: 0.289
6 | GGAACGCAUCUUCUCUAAATT against PKN3 | inactive: 0.476
7 | CCACCGAGCUAACAUCUGATT against MFAP3L | active: 1.03
8 | GAAUCUGGUUAUGAUACAATT against GUCY1B3 | inactive: -0.19
9 | CCAACGAUCUGGACCGUGUTT against MED16 | inactive: -0.6
10 | GGAUUAUAGUGUCACCUAUTT against CPD | inactive: -0.198
11 | GGAUAAUACAGAAGCAGAATT against SAP30BP | inactive: -0.257
12 | CACCUGCUAUGUUACGGGATT against BAT2 | inactive: 0.0889
13 | GACUCUUCUGACUAACAUATT against DACH1 | inactive: 0.562
14 | AGUGCAUGGAGGUAGGCAATT against TPST2 | inactive: -0.682
15 | GCUCUGAUCCUACCCUUAATT against PIK3C2B | inactive: -0.653
16 | UAAUCUAUGUAGCAAGAAATT against SULT1C4 | inactive: 0.00352
17 | CGAAGACACGUAGCCCUAATT against PUS3 | inactive: 0.584
18 | GUAGCAGUGUCACGCCUUATT against BRD2 | inactive: -0.242
19 | GGCUCAUGUUCGACAAGGATT against NTNG2 | inactive: 0.403
20 | AGAUCACUGUAUCACCUCUTT against VDR | inactive: -0.031
21 | GCAGAAGAGUAUUAAGAAATT against BATF | inactive: -0.0501
22 | GCUGAGUUAUGAAGGCGAATT against SERPINF1 | inactive: -0.145
23 | GCUAAUUACAUUGAACAAATT against EIF4E | inactive: -0.404

Quoted from the listing.
GAACCUCCGUGAUCGAUUUTT against PIP4K2C | median seed-adjusted z-score: inactive: 0.27
GGAUAAUACAGAAGCAGAATT against SAP30BP | median seed-adjusted z-score: inactive: -0.257

The results go on:

Row | Sequence | median seed-adjusted z-score
24 | GGCUGGAUGAGGGAUAGUATT against CHAC1 | inactive: 0.517
25 | CCAUAAGUCUGGAAUCACUTT against ADAM2 | inactive: -0.116
26 | GGAGCGCAUUGAUACUAGATT against HSPA5 | inactive: 0.19
27 | CAAGAACUUGUGGAACUCATT against PAIP1 | inactive: -0.0178
28 | GGACCGGAAGUGUGGGAUATT against NDUFA13 | inactive: -0.138
29 | CCUUAUUUCUAUCACCCAATT against BARHL2 | inactive: -0.147
30 | GGUAGUGAAGGAUUACUCATT against WDR36 | inactive: 0.00836
31 | GCAUUGAGAUUGACCAGAATT against MAP2K7 | inactive: -0.772
32 | CCACAAGACCACAAACUAATT against LIPT1 | inactive: 0.552
33 | GAACUGAGAUCGAAAUUGATT against HES7 | inactive: -0.286
34 | GUGACUCGCUGGUUUGUCATT against VARS | inactive: 0.237
35 | GGAUGCGCACAGUCACCAATT against TACR2 | inactive: 0.201
36 | GCUGCUAUUUGAUAGACCATT against HNRNPM | inactive: 0.499
37 | GAUCUACUGUGAGCGGGUATT against KIF1C | inactive: 0.749
38 | CAUUCAGUCGUUUCAGAUATT against ZNF443 | inactive: 0.0544
39 | GGGCAUUUUUGUCGAAGAATT against SLC4A4 | inactive: 0.43
40 | CACUUUUCACCAAAGUCAATT against TTC33 | inactive: 0.104
41 | AGACUUGUCUCAGGAAUUUTT against UGT1A6 | inactive: -0.0939
42 | CCGCAAUCAUAGAUCAUGATT against CDC42BPA | inactive: 0.257
43 | GUGACAAAGCUAACGAAUUTT against PRDX3 | inactive: -0.0659
44 | CCAUGCACAUAAAAUAACUTT against ZNF625 | inactive: -0.0711
45 | CCUACAUGCUUCGAACUAATT against ARSK | inactive: -0.00229
46 | AGCAGCACAUCAAAAAGAATT against SPTBN4 | inactive: -0.0625

Row | Sequence | median seed-adjusted z-score
47 | GAUAUUUGCCUAUGCCUUUTT against ZMYND19 | inactive: 0.369
48 | GGGAAUUCUUCGUACUCCATT against CLTC | inactive: -0.0662
49 | CCCUAAGCAUGGCUAUGCATT against GTF2H2D | inactive: 0.22
50 | GCAAAGAGGAAAUCCCACATT against CYGB | inactive: -0.34
51 | GGCUAUCUGCUGAAGCGCATT against RASAL1 | inactive: -0.089
52 | CCAUGUUUGAACAAGCCCATT against MYL7 | active: -1.21
53 | GCCUAGAGGUUUGCCCUGATT against ATHL1 | inactive: 0
54 | AGAAGGAUAUUUAUGAUGATT against ZNF302 | inactive: 0.498
55 | CUUGAUGACUCUAAACCUATT against RUNX2 | inactive: 0.335
56 | GUUGCUGAGUGUACUCUAATT against LEF1 | inactive: 0.808
57 | GAUUGAUAAAUAUCGUGUATT against CDC23 | inactive: 0.0112
58 | GAACCCAUCUGCUCUGUGATT against PTPN7 | inactive: -0.189
59 | UGACCUCUCCAAACCCUCUTT against MUS81 | inactive: 0
60 | AGAGGACGGAAGAUAAGAATT against ING5 | inactive: -0.193
61 | CCGUAAACAUAUGACUAAATT against ZBTB11 | inactive: -0.105
62 | AGAUUGACGAUGACUGCAATT against PLCH2 | inactive: 0.593
63 | CCAUAAUGAUACUAUAUGUTT against SLC35D2 | inactive: -0.127
64 | GCUCUUCAUUUUAAAGGCATT against UNC5C | inactive: 0.0496
65 | CCAUCUUACGUACCUUCUATT against DPEP2 | inactive: 0
66 | UCCUGUUCCUGUACAUAAATT against IL5 | inactive: -0.229
67 | CAAAGUUGAGAGGACCUUUTT against TTBK1 | inactive: 0.00054
68 | GUAUCGCUGUUUCUACGGUTT against LILRA1 | inactive: -0.231
